According to paper PMC12188530 (RSC Advances, 2025):

Molecular target: T1, S. aureus ATCC 43300 Sortase A (Staphylococcus aureus, UniProt Q2FV99)
T1 sequence (Q2FV99 60-206): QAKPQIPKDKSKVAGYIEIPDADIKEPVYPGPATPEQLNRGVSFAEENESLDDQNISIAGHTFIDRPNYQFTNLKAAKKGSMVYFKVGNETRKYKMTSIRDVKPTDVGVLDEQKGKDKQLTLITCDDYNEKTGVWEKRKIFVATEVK
Assay: Sortase A activity assay by FRET
Assay type: biochemical

CN1CCN(CCCN2c3ccccc3Sc3ccc(Cl)cc32)CC1 [Prochlorperazine dimaleate]
inhibition at 128 µg/mL: 47%
